These results are taken from US7041486B1, “Enzyme having decolorizing activity and method for decolorizing dyes by using the same” (Meiji Seika Kaisha Ltd., priority 1999, dated 2006).

The subject of this data set is DyP. In words: Assay of dye-degrading (decolorizing) activity of purified DyP. Type of data set: biochemical, Geotrichum candidum Dec 1. The following applies: optimum pH for the degradation of each dye by DyP, 25 mM citrate buffer. The protocol: The dye-degrading spectrum of the purified DyP was examined for nine types of dyes and three model compounds. The activity of the purified DyP to degrade these dyes or model compounds was assayed by measuring the degradation rates.
As the dyes, use was made of Reactive blue 5, 19 and 114; AQ-1 and AQ-2; Reactive black 5, Reactive red 33, Reactive yellow 2, and Reactive blue 182.
The dye-degrading activity was measured as follows.
0.2 to 0.4 mM aqueous hydrogen peroxide was added to a mixture solution of 3 mL of 25 mM citrate buffer (adjusted to the optimum pH for the degradation of each of the dyes) containing each dye at a fixed […] (30 to 120 ppm) and 1 mL of 1.86 nM DyP solution, to initiate the enzyme reaction. Reaction was performed at 30° C. for a fixed period of time, to assay the reaction rate.
1 U of the dye-degrading activity was defined as the activity to decolorize 1 μmole Reactive blue 5 or AQ-2 for one minute.

`Nc1cc(Nc2cc(S(=O)(=O)[O-])c(N)c3c2C(=O)c2ccccc2C3=O)ccc1S(=O)(=O)[O-].[Na+].[Na+]` [AQ-1, 1-amino-4-(3-amino-4-sodium-sulfonoanilino)-2-sodium anthraquinone sulfonate]: the “Optimum pH” value is reported as 3.2.

In the case of `CNc1cc(S(=O)(=O)[O-])c(N)c2c1C(=O)c1ccccc1C2=O.[Na+]` [AQ-2, 1-amino-4-methylamino-2-sodium-anthraquinone sulfonate], the “Optimum pH” value is 3.0.

Take `Nc1c(N=Nc2ccc(S(=O)(=O)CCOS(=O)(=O)[O-])cc2)c(S(=O)(=O)[O-])cc2cc(S(=O)(=O)[O-])c(N=Nc3ccc(S(=O)(=O)CCOS(=O)(=O)[O-])cc3)c(O)c12.[Na+].[Na+].[Na+].[Na+]` [Reactive black 5]: the “Optimum pH” value stood at 3.2.

With `Nc1c(S(=O)(=O)[O-])cc(Nc2ccc(S(=O)(=O)[O-])c(Nc3nc(Cl)nc(Nc4cccc(S(=O)(=O)[O-])c4)n3)c2)c2c1C(=O)c1ccccc1C2=O.[Na+].[Na+].[Na+]` [Reactive blue 5], the “Optimum pH” value turned out to be 3.2.

Take `Nc1c(S(=O)(=O)[O-])cc(Nc2cccc(S(=O)(=O)CCOS(=O)(=O)[O-])c2)c2c1C(=O)c1ccccc1C2=O.[Na+].[Na+]` [Reactive blue 19]: the “Optimum pH” value is 3.2.

On to `COc1ccc(N=Nc2c(S(=O)(=O)[O-])cc3cc(N(C)c4nc(Cl)nc(Nc5ccc(S(=O)(=O)[O-])cc5)n4)ccc3c2O)c(S(=O)(=O)[O-])c1.[Na+].[Na+].[Na+]` [Reactive red 33], for which the “Optimum pH” value is on record as 3.2.

In the case of `CC1=NN(c2cc(Cl)c(S(=O)(=O)O)cc2Cl)C(=O)C1N=Nc1cc(Nc2nc(Cl)nc(Nc3ccc(S(=O)(=O)O)cc3)n2)ccc1S(=O)(=O)O.[Na]` (stereo not drawn) [Reactive yellow 2], the “Optimum pH” value stood at 3.2.

As for Reactive blue 114, the “Optimum pH” value turned out to be 4.0.

Turning to Reactive blue 182, the “Optimum pH” value is 4.0.
